This passage reports activation results from PubChem BioAssay AID1999 (Broad Institute, 2009).

Some of the results follow. Results with a measured potency or affinity are listed apart. Where no call is shown, the source marks the result inconclusive.

A short description of the experiment: activators of PrP 5'UTR-driven reporter translation, dose response, luminescence (AID 1999). To be noted: H4 cells, PrP 5'UTR luciferase reporter; at 12 µM (top of the series) unless noted. (A reporter such as luciferase makes a cellular process visible.)
`O=C(Nc1nnc(-c2ccccc2F)s1)C1CCCO1` (centres undefined): the activation was determined as 79.5%. Next, `O=C(c1cnn(-c2ccc(Cl)cc2)c1)c1ccccc1O`: 58.3%. For the molecule `Cc1ccsc1C(=O)Nc1ccc(OCc2ccccc2)cc1`, the activation amounted to 55.6%. For `CCCOc1cccc(-c2nc3ccccc3c(=O)o2)c1`, the activation amounted to 96.2%. In the case of `Cc1ccc(-n2c(C)cc(C(=O)COC(=O)c3c(C)noc3C)c2C)cc1`, the activation is 52.4%. Take `Cc1nnc2n(c1=O)N=C(c1ccc(Cl)cc1)CS2`: the activation came out at 65%. On to `Cc1ccc2nc(C3CCCCC3)[nH]c2c1`, for which the activation amounted to 52.6%. As for `Cc1ccc(OC(=O)c2cccc([N+](=O)[O-])c2)c(-n2nc3ccccc3n2)c1`, the figure is 83.7%; as for `C(=C\c1ccccc1)/C=N/Nc1nc2ccccc2s1`, 58.4%. Turning to `C=CCNC(=O)c1cc2c(=O)n3ccccc3nc2s1`, the activation came to 29.1%. For `COCCNC(=O)/C(C#N)=C/c1cc(C)n(C2CCCCC2)c1C`, the activation came to 29.7%. On to `Nc1nc(CSc2ncccn2)nc(Nc2ccccc2)n1`, for which the activation came to 64.4%. As for `Clc1ccccc1-c1nc(-c2ccccc2)n[nH]1`, the figure is 125%. In the case of `CCCCSc1ncc(C(=O)OCC)c(N)n1`, the activation came out at 70.5%. With `O=C(Cc1nc(=O)c2ccccc2s1)Nc1ccccc1`, the activation is 56.9%.

`Cc1cccc(NC(=S)NNC(=O)c2csc(C(C)C)c2)c1`: the activation was 94%. On to `Cc1ccc(-n2ncc(Cl)c2C(=O)NC2CC2)cc1`, for which the activation turned out to be 98.4%.

`CC(=O)c1cnc2cc(-c3ccc(C)cc3)nn2c1C`: the activation is 69.7%. For the molecule `N#Cc1c(-c2ccc(Cl)cc2)ccn2nc(C3CCCCC3)nc12`, the activation was 51.3%.

As for `COc1ccc(C2C(=O)c3ccccc3C2=O)c(OC)c1`, the activation stood at 55.2%. With `Cc1ccccc1/C=C1\CCCc2ccccc2C1=O`, the activation amounted to 65.8%. On to `Cc1ccc(Nc2nc(-c3ccncc3)cs2)cc1`, for which the activation came out at 137%. Next, `Cc1ccc(-n2nc3c(n2)/C(=N/O)CC/C3=N\O)cc1`: 49.9%. Turning to `c1csc(C2=NNC(=NC3CCCCC3)SC2)c1`, the activation was determined as 61.6%. Regarding `CCN1C(=S)SC(=O)C1=C1C=C(C)N(CCO)C(C)=C1`, the activation was determined as 53.6%.

With `Nc1nc(Nc2ccccc2F)sc1C(=O)c1ccccc1`, the activation was found to be 52.8%. Consider `COc1ccc(-n2ncc3c(N4CCc5ccccc54)ncnc32)cc1`, for which the activation was -8.6%.

As to `O=c1c2ccccc2nc(-c2ccco2)n1Cc1ccccc1`, the activation was 112%. As for `O=C(COC(=O)c1cccs1)c1ccc2c(c1)OCCO2`, the activation worked out at 106%.

For `Clc1ccc2nc(CSCc3ccccc3)cn2c1`, the activation came to 48.5%. As to `Nc1ccc2nc(-c3ccccn3)[nH]c2c1`, the activation was 43.1%.

On to `CC1CCc2c(sc(NC(=O)c3nc4ncccn4n3)c2C#N)C1` (centres undefined), for which the activation stood at 41.3% [at 6 µM]. With `COc1ccc2c(c1OC)C(=O)OC2Nc1nc(-c2ccc(-c3ccccc3)cc2)cs1` (centres undefined), the activation worked out at 81.1%. As to `Cc1ccc(OCCn2cnc3ccccc3c2=O)c([N+](=O)[O-])c1`, the activation came out at 52.1%. As to `COC(=O)CSc1nc2cc3c(cc2cc1C#N)OCO3`, the activation came out at 49.9%. For the molecule `CC(=O)/C(N=Nc1ccc2c(c1)OCO2)=C(\C)O`, the activation came out at 79.7%. Next, `Clc1ccc(-c2cnc(Oc3ccccc3)nc2)cc1`: 54.9%. `O=C(Nc1ccc2ccccc2n1)c1ccccc1Br`: the activation was found to be 40.7%.

In the case of `c1ccc(N2CCN(c3nc4cc5c(cc4s3)OCO5)CC2)cc1`, the activation was determined as 28.4%. With `COc1cccc(COC(=O)Nc2ccccc2F)c1`, the activation was determined as 82.3%.

On to `Cc1c(C(=O)Nc2ccccn2)oc2ccccc12`, for which the activation was 106%. Next, `Cc1nc2c3cnn(-c4ccc(C)c(C)c4)c3ncn2n1`: 33.4%; `COc1ccc(C2=NC(c3ccccc3)CO2)cc1` (centres undefined): 66.8%. Turning to `Cc1cc(C)c(NN=c2c(=O)c3ccccc3c2=O)c(C)c1`, the activation turned out to be 68.3%. Take `O=C(N=C1SCC(=O)N1c1ccccc1Cl)c1ccco1`: the activation turned out to be 123%.

With `O=C(Nc1ccc(N2CCOCC2)c(Cl)c1)c1ccc(Br)o1`, the activation was 45%. Next, `CCOC(=O)c1c(C)[nH]c(N=Nc2ccc(C)cc2)c1C`: 60.3%.

For `O=C(Nc1ccccc1)c1cc2ccccc2c(=O)s1`, the activation worked out at 68.9%. In the case of `C=CCn1c(C)nc2c(sc3nc4c(cc32)COC(C)(C)C4)c1=O`, the activation was determined as 38.2%. As to `c1ccc(-c2nnc(SCCC3OCCCO3)o2)cc1`, the activation turned out to be 33.3%. For `COc1ccc2cc(C(=O)NCC3CCCO3)[nH]c2c1` (centres undefined), the activation came to 117%. Regarding `C=CCNc1ncnc2c1[nH]c1ccc(Cl)cc12`, the activation turned out to be 106%. As for `Cc1nc(-c2ccccc2)sc1-c1ccnn1C`, the figure is 77.4%; as for `COc1ccc(Nc2ncnc3c2oc2ccccc23)cc1`, 60.7%.

As to `COc1ccc(/C=C2\SC(=O)N(CCNC(=O)C3CC4C=CC3C4)C2=O)cc1` (centres undefined), the activation came out at 61.9%. Next, `Clc1nc(-c2ccccn2)nc2scc(-c3ccccc3)c12`: -10.1%; `O=C(Cc1ccccc1)NC(=S)Nc1ccc2oc(-c3ccccc3F)nc2c1`: 22.4%. On to `O=C(Nc1cc(-c2ccccc2)[nH]n1)c1ccccc1F`, for which the activation came to 44.7%. Next, `CN(C)c1ccc(NC(=O)c2sc(SCC(=O)Nc3nccs3)nc2N)cc1`: 51.9%. Turning to `CCc1ccc(NC(=O)c2[nH]c(C)c(C(C)=O)c2C)cc1`, the activation came to 69.1%. In the case of `CCSc1nn2c(=O)c3ccccc3nc2s1`, the activation was 39.2%.

With `CCC(=O)Nc1cccc(-c2nnc(SCC(=O)c3ccccc3)n2C)c1`, the activation is 66.2%. As for `Cc1ccc(N2CCN(C(=O)c3cn(CC4CCCCC4)nn3)C(C)C2)cc1` (centres undefined), the activation came to 64.7%. Next, `Cc1c(C(=O)Nc2ccccc2[N+](=O)[O-])csc1-c1ccccc1`: 101% [at 6 µM].

`CC(C)(C)CC(=O)Nc1nnc(-c2cccs2)s1`: the activation was determined as 43.4%.

As to `Cc1cc(C(=O)CSc2nc3ccccc3o2)c(C)n1C1CC1`, the activation is 45.1%. Turning to `O=C(Nc1ncccc1O)c1ccc(Oc2ccccc2)cc1`, the activation turned out to be 49.8%. Turning to `c1ccc(OCCSc2nnnn2C2CCCCC2)cc1`, the activation is 62.6%. For the molecule `Cc1ccc2c(c1)sc1nc(=O)n(-c3cccc(Cl)c3)c(=O)n12`, the activation was 64.3%.
